# Laboratory results: PubChem BioAssay AID1259424 (University of Nebraska Medical Center, 2018)
# Test: 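Seek colon cancer survival genes behaving like KSR1, using a six-gene signature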 (primary screen)
# Cells: human HCT116 colon cancer cells
# Reagents: siRNA pool against human genes, 50 nM
# Measurement: 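Six signature mRNAs by branched-DNA multiplex assay, scaled to two housekeeping genes and non-targeting median, log2; matched to mean KSR1 knockdown profile by Pearson correlation and euclidean distance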
# Scale: mean correlation with KSR1 profile and KSR1 correlation: higher = expression change more like KSR1 knockdown; mean distance from KSR1 profile: higher = expression change less like KSR1 knockdown
# Here is a random part of about 14,000 reagents. 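Higher correlation or smaller distance means closer resemblance to KSR1 loss; control wells, including KSR1 knockdowns, recur on many plates.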 Not all columns of the deposit are shown. No sequences are given here. Not given: the time to read-out.
The opening 2 entries, to show the layout:
gene knocked down,mean correlation with KSR1 profile,mean distance from KSR1 profile,"KSR1 correlation, replicate 1","KSR1 correlation, replicate 2"
TINAG (GeneID 27283),0.316,1.63,0.246,-0.0197
CYRIB (GeneID 51571),0.531,1.67,0.494,0.55

The list itself, from the start:
gene knocked down,mean correlation with KSR1 profile,mean distance from KSR1 profile,"KSR1 correlation, replicate 1","KSR1 correlation, replicate 2"
TINAG (GeneID 27283),0.316,1.63,0.246,-0.0197
CYRIB (GeneID 51571),0.531,1.67,0.494,0.55
TSFM (GeneID 10102),-0.0189,2.12,-0.055,0.0826
BCAS2 (GeneID 10286),-0.203,3.39,-0.0914,-0.311
PLEKHB2 (GeneID 55041),-0.202,2.32,-0.508,-0.0132
BTNL8 (GeneID 79908),0.418,2.29,0.358,0.576
PARP6 (GeneID 56965),-0.72,3.83,-0.733,-0.582
RPS9 (GeneID 6203),-0.458,1.65,-0.415,-0.238
ZMYM1 (GeneID 79830),0.436,1.66,0.511,0.512
SCN3A (GeneID 6328),0.0436,1.3,-0.0787,-0.0851
STAT1 (GeneID 6772),0.47,1.58,0.625,0.407
ZNF777 (GeneID 27153),-0.0235,2.64,-0.286,-0.122
TCP10L (GeneID 140290),-0.697,2.92,-0.512,-0.236
GLS2 (GeneID 27165),0.108,1.87,0.112,0.0509
GPSM1 (GeneID 26086),0.143,1.53,0.652,0.244
TBC1D7 (GeneID 51256),-0.677,1.82,-0.821,-0.127
TRO (GeneID 7216),0.809,1.77,0.801,0.642
LHFPL2 (GeneID 10184),-0.059,2.31,-0.0812,-0.441
PEPD (GeneID 5184),-0.403,2.87,-0.606,-0.273
CALCB (GeneID 797),-0.71,1.79,-0.611,-0.342
